One molecule from publication PMC8474885 can be followed below.

For the assay, the target named is 3Flag-tagged p113 (human). Nature of the assay: affinity purification with mass spectrometry; co-IP with p113 or Flag-tag antibody from SH-SY5Y cells stably transfected with 3Flag-tagged p113; bead-bound proteins analysed by mass spectrometry; hits overlapped with transcription and epigenetic factor databases.

Results are given in words; binding and its absence hold for the method and conditions named. In cells and extracts the contact can be indirect. These calls come from enrichment with a bait or labelling near it, and not all partners need be listed.

B1: Zuotin-related factor 1 (ZRF1), endogenous (protein, UniProt Q99543 1-621)
chain: MLLLPSAADGRGTAITHALTSASTLCQVEPVGRWFEAFVKRRNRNASASFQELEDKKELSEESEDEELQLEEFPMLKTLDPKDWKNQDHYAVLGLGHVRYKATQRQIKAAHKAMVLKHHPDKRKAAGEPIKEGDNDYFTCITKAYEMLSDPVKRRAFNSVDPTFDNSVPSKSEAKDNFFEVFTPVFERNSRWSNKKNVPKLGDMNSSFEDVDIFYSFWYNFDSWREFSYLDEEEKEKAECRDERRWIEKQNRATRAQRKKEEMNRIRTLVDNAYSCDPRIKKFKEEEKAKKEAEKKAKAEAKRKEQEAKEKQRQAELEAARLAKEKEEEEVRQQALLAKKEKDIQKKAIKKERQKLRNSCKTWNHFSDNEAERVKMMEEVEKLCDRLELASLQCLNETLTSCTKEVGKAALEKQIEEINEQIRKEKEEAEARMRQASKNTEKSTGGGGNGSKNWSEDDLQLLIKAVNLFPAGTNSRWEVIANYMNIHSSSGVKRTAKDVIGKAKSLQKLDPHQKDDINKKAFDKFKKEHGVVPQADNATPSERFEGPYTDFTPWTTEEQKLLEQALKTYPVNTPERWEKIAEAVPGRTKKDCMKRYKELVEMVKAKKAAQEQVLNASRAKK
Turning to B1, the binding entry is given as “binds”.
